Reference: the supplement of paper PMC10849652
The list shows a part of the results.

Sequences of proteins named here, by UniProt entry; tags and fusion partners are left off. A change or cut given only in a name is not applied to a line headed by its entry.
UniProt Q9Y6R4: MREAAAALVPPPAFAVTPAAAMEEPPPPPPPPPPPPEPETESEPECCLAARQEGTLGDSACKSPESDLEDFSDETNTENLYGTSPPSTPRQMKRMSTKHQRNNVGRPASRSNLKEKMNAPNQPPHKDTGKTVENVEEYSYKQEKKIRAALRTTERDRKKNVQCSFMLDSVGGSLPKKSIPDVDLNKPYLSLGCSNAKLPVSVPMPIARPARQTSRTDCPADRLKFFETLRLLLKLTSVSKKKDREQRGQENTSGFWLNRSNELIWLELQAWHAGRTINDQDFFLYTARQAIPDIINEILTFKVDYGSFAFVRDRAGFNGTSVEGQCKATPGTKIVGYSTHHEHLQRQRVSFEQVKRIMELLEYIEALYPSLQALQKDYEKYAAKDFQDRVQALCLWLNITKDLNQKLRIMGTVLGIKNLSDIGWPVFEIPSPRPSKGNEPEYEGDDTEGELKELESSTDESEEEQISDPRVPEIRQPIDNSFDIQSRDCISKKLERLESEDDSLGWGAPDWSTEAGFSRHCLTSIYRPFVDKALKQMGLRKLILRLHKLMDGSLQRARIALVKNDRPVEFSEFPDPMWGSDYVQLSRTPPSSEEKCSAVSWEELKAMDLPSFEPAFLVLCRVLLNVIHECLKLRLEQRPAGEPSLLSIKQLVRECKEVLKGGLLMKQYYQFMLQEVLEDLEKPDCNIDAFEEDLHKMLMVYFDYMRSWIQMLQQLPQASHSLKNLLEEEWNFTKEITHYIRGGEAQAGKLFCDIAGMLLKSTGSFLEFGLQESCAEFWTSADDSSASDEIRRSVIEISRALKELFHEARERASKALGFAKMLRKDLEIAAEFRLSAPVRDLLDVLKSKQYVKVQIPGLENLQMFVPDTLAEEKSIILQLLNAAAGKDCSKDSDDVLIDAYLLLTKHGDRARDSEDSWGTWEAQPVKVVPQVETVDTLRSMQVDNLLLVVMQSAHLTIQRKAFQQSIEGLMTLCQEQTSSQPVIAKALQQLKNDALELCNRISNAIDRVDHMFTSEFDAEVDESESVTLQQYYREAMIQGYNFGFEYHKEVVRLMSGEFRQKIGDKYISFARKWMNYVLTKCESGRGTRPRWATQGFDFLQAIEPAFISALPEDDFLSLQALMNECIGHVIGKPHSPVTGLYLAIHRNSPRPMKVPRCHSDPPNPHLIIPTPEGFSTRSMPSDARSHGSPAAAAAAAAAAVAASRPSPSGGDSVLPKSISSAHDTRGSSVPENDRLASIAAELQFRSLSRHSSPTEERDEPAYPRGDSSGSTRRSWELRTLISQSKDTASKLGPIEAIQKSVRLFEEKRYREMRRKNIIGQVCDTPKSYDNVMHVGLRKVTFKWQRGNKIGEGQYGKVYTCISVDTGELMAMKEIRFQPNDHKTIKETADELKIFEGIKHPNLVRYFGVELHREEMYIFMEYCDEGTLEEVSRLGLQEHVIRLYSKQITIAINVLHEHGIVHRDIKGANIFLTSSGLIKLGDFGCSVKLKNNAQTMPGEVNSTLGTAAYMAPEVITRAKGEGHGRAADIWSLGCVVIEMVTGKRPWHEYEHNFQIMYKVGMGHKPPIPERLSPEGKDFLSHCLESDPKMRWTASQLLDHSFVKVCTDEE
UniProt Q16539, whole entry, looked up: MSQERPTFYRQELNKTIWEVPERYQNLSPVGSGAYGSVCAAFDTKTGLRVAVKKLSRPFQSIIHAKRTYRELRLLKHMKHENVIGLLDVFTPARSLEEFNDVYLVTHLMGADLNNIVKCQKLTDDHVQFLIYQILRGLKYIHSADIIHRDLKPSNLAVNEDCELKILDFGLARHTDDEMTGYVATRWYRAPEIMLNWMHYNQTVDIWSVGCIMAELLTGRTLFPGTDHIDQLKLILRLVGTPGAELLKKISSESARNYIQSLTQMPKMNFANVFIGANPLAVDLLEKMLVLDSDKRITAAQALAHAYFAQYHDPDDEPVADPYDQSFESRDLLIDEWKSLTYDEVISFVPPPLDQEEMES
UniProt P51884: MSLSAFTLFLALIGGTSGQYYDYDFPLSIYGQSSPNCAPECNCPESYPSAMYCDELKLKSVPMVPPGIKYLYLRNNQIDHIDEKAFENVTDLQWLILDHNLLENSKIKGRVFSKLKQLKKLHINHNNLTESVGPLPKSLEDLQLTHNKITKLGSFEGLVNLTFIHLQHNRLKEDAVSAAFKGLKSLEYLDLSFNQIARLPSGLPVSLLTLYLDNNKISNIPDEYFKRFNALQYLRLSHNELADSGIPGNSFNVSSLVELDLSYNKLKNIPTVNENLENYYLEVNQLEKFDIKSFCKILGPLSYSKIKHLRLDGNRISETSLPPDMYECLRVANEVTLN
UniProt Q9Y4Y9: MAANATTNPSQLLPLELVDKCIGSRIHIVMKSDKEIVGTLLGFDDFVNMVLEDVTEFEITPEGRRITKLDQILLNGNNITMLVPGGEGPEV
UniProt Q9NQ29: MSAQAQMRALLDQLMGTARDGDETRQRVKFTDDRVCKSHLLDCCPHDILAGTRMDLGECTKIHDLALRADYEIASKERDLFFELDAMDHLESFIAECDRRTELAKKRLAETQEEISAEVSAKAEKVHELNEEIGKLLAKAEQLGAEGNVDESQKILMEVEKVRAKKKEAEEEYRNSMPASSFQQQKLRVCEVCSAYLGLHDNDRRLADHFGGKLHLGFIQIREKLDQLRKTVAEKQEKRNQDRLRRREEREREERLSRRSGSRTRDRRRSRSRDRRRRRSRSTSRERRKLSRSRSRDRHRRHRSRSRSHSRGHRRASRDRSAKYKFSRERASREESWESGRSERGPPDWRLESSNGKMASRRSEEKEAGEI
UniProt P49006: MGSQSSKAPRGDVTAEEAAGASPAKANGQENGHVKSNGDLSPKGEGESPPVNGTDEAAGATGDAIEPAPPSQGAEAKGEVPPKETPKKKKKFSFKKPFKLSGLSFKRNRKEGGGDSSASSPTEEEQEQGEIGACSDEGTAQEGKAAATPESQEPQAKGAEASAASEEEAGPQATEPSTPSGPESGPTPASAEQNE
UniProt Q13257, whole entry, looked up: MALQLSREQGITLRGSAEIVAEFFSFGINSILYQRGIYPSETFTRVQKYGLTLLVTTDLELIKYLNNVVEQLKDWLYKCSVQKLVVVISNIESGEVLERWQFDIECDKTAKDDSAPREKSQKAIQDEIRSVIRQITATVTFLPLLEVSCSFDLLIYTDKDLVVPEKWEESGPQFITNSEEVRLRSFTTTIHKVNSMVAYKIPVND
UniProt Q9Y2U5: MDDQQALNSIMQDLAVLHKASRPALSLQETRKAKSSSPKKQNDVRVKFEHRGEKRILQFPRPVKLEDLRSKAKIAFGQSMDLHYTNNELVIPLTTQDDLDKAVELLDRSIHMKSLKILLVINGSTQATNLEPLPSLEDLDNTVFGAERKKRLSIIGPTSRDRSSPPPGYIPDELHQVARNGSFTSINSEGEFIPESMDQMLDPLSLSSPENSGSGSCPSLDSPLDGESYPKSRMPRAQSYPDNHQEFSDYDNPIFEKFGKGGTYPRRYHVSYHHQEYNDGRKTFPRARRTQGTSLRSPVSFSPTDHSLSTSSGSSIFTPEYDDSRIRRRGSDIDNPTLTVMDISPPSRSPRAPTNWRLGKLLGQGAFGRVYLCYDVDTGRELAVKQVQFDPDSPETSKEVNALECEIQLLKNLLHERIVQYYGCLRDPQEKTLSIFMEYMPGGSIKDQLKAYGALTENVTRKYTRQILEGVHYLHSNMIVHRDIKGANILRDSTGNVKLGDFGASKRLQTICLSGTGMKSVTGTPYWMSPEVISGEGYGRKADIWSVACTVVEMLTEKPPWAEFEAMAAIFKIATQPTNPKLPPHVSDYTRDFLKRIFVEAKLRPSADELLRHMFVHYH
UniProt O95232: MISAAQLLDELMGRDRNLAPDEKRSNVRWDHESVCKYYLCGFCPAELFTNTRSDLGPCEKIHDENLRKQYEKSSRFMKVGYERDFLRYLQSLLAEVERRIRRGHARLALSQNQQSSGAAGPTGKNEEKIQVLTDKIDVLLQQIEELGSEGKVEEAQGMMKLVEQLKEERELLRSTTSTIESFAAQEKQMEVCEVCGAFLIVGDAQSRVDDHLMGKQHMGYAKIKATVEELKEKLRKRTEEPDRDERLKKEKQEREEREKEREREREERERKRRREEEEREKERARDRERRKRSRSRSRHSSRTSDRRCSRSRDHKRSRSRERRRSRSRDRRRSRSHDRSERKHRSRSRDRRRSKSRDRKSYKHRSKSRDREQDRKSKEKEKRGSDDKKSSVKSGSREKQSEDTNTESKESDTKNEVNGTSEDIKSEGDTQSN
UniProt O95819: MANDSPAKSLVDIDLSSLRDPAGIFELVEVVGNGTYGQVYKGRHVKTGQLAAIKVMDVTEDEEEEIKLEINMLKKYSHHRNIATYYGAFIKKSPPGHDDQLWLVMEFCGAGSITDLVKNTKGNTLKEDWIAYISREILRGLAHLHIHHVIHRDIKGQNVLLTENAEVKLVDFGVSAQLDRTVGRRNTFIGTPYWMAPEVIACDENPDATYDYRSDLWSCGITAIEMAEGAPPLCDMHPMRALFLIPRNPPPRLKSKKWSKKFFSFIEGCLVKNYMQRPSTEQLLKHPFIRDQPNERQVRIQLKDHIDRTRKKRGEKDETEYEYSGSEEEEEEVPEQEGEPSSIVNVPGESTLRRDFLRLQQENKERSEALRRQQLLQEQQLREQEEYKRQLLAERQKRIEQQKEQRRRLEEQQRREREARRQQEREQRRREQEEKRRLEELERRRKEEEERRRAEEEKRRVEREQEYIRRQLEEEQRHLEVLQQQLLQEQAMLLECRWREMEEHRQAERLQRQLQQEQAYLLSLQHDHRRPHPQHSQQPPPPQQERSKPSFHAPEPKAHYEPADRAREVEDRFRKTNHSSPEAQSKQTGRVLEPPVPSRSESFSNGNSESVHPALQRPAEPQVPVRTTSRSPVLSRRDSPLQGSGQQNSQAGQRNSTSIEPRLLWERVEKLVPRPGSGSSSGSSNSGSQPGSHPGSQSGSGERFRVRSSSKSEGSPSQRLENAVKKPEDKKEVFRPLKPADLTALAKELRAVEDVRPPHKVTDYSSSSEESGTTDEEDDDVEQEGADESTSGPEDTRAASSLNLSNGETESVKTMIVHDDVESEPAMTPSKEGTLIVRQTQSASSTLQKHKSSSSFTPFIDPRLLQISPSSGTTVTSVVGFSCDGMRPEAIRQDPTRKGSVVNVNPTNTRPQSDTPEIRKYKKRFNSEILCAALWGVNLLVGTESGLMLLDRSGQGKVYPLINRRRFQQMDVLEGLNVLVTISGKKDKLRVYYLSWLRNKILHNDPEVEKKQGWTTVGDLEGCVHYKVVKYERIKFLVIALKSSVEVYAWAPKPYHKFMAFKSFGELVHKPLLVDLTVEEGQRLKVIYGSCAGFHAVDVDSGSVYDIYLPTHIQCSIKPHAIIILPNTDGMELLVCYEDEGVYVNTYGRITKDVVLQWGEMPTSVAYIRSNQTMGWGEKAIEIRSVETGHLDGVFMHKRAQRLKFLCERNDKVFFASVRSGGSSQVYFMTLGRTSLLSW
UniProt Q9UI95, whole entry, looked up: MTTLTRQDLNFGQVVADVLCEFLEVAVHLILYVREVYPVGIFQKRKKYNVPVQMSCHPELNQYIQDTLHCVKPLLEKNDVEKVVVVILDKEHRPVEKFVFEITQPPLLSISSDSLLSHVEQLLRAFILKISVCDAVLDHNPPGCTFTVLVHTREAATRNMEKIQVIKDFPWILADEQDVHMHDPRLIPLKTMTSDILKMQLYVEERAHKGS
UniProt P43361: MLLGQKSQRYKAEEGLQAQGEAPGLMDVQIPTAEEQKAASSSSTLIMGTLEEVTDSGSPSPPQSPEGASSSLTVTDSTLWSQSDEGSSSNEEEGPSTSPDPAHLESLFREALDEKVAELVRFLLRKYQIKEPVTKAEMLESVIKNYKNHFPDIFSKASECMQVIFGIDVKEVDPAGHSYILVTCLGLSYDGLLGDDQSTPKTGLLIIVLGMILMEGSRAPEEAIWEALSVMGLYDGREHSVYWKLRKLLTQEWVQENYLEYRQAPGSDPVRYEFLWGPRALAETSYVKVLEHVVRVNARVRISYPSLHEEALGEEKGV
UniProt P07948: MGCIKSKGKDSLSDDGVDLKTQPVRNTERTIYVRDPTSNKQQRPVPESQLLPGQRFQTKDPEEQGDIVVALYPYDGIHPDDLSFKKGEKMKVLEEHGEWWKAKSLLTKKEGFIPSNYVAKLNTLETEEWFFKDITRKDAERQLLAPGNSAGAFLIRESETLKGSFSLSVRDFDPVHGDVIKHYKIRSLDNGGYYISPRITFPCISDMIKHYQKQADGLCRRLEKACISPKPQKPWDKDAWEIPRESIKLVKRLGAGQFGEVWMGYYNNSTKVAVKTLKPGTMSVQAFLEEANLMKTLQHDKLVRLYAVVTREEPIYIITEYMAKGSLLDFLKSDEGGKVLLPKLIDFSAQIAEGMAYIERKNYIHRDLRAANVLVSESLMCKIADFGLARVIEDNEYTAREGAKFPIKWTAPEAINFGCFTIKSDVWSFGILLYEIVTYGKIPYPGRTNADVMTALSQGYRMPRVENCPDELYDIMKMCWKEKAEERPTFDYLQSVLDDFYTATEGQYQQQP

Columns and labels:
Assay in all cases: log2 fold change, soluble protein after heating vs DMSO (PISA); higher = thermal stabilisation; K562 cells, 10 uM, 30 min; active = over 0.2 and 3.5 SD of the protein, either way, in both replicates (recomputed)
[1] = compound: CC[C@@H]1C(=O)N(C)c2cnc(Nc3ccc(C(=O)NC4CCN(C)CC4)cc3OC)nc2N1C1CCCC1
Summary of the method: (§1)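 K562 cells at 2×10^6 cells/mL were given 10 μM compound for 30 min. Aliquots then went through 3 min of heating across 48°C-58°C, were pooled, and were extracted in PBS with 0.5% NP-40 at 4°C, and the supernatant after 21,000xg for 90 min was quantified by TMTpro 16plex LC-MS/MS with channel sums equalised. Thermal stability relative to control samples, from duplicates, is given as log2 fold change.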

volasertib = compound: CC[C@@H]1C(=O)N(C)c2cnc(Nc3ccc(C(=O)N[C@H]4CC[C@H](N5CCN(CC6CC6)CC5)CC4)cc3OC)nc2N1C(C)C [volasertib]
Summary of the method: as §1

[2] = compound: CC[C@H](C)N1C=C(C2=C(C=C(C=C21)C3=CN=C(C=C3)N4CCNCC4)C(=O)NCC5=C(C=C(NC5=O)C)C)C
Summary of the method: as §1

epoxomicin = compound: CC[C@H](C)[C@@H](C(=O)N[C@@H]([C@@H](C)O)C(=O)N[C@@H](CC(C)C)C(=O)[C@]1(CO1)C)NC(=O)[C@H]([C@@H](C)CC)N(C)C(=O)C [epoxomicin]
Summary of the method: as §1

[3] = compound: CCn1c(C(=O)N(C2CC2)C2CC2)cc2c3c(ncn3C)c(Nc3cc(C)n(C)n3)nc21
Summary of the method: as §1

[4] = compound: CCn1cc(-c2ccnc3[nH]c(-c4cccc(CN(C)C)c4)cc23)c(-c2ccc(NC(=O)N(C)C)cc2)n1
Summary of the method: as §1

[5] = compound: CN(C)CC(=O)Nc1ccc2[nH]c(=O)c3ccccc3c2c1
Summary of the method: as §1

rosiglitazone = compound: CN(CCOC1=CC=C(C=C1)C[C@H]2C(=O)NC(=O)S2)C3=CC=CC=N3 (racemic) [rosiglitazone]
Summary of the method: as §1

[6] = compound: CN1C2=C(C3=C1C(=O)N(N=C3)CC4=CC(=CC=C4)N)SC(=C2)S(=O)C
Summary of the method: as §1

[7] = compound: CN1CCC(CNc2ccc3ncc(-c4cccc(OC(F)(F)F)c4)n3n2)CC1
Summary of the method: as §1

Measured: log2 fold change

LSM14A isoform 2 (UniProt Q8ND56)
inactive: [1] 0.031 | volasertib -0.166 | [2] 0.004 | epoxomicin -0.006 | [3] -0.083 | [4] 0.027 | [5] -0.006 | rosiglitazone 0.002 | [6] -0.025 | [7] -0.04

MAP11 (UniProt Q8WVR3)
inactive: [1] 0.033 | [2] 0.011 | epoxomicin 0.038 | [3] 0.399 | [4] 0.083 | [5] 0.17 | rosiglitazone 0.034 | [7] -0.025

MAPK9 (UniProt P45984)
inactive: [1] -0.055 | volasertib -0.087 | [2] 0.006 | epoxomicin -0.005 | [4] 0.03 | [5] 0 | [6] -0.038 | [7] -0.071

MAP3K4 isoform 2 (UniProt Q9Y6R4)
inactive: [1] 0.141 | [2] -0.013 | epoxomicin 0.007 | [5] 0.013 | [6] -0.018 | [7] 0.024
active: volasertib 0.398 | [4] -0.519

MAPK14 (UniProt Q16539)
inactive: [1] -0.065 | volasertib -0.516 | [2] -0.067 | [4] 0.03 | [5] 0.052 | [6] -0.231 | [7] -0.03

3 entries picked at random from those above:
MAP3K4 isoform 2 (UniProt Q9Y6R4)
inactive: [1] 0.141 | [2] -0.013 | epoxomicin 0.007 | [5] 0.013 | [6] -0.018 | [7] 0.024
active: volasertib 0.398 | [4] -0.519

LSM14A isoform 2 (UniProt Q8ND56)
inactive: [1] 0.031 | volasertib -0.166 | [2] 0.004 | epoxomicin -0.006 | [3] -0.083 | [4] 0.027 | [5] -0.006 | rosiglitazone 0.002 | [6] -0.025 | [7] -0.04

MAPK14 (UniProt Q16539)
inactive: [1] -0.065 | volasertib -0.516 | [2] -0.067 | [4] 0.03 | [5] 0.052 | [6] -0.231 | [7] -0.03

The list continues:

MAP4 (UniProt E7EVA0)
inactive: [1] 0.079 | volasertib 0.246 | [2] 0.036 | epoxomicin -0.113 | [4] 0.068 | [5] -0.021 | [6] 0.131 | [7] 0.152

MAP2K7 isoform 4 (UniProt O14733)
inactive: [1] -0.026 | volasertib -0.005 | [2] 0.022 | epoxomicin 0.07 | [4] -0.086 | [5] -0.017 | [6] -0.065 | [7] -0.15

MAPKAPK3 (UniProt Q16644)
inactive: [1] -0.084 | volasertib 0.036 | [2] 0.003 | epoxomicin 0.064 | [4] 0.016 | [5] -0.015 | [6] -0.14 | [7] -0.049

LUM (UniProt P51884)
inactive: [1] 0.076 | volasertib 0.225 | [2] -0.269 | epoxomicin -0.145 | [5] -0.167 | [6] 0.054

LSM5 (UniProt Q9Y4Y9)
inactive: [1] -0.03 | [2] -0.179 | epoxomicin 0.086 | [3] 0.044 | [4] -0.448 | rosiglitazone 0.044 | [7] 0.054

MARK2 (UniProt E9PC69)
inactive: [1] 0.044 | volasertib -0.469 | [2] 0.086 | epoxomicin 0.023 | [5] -0.028 | [6] 0.187

LUC7L (UniProt Q9NQ29)
inactive: [1] 0.006 | volasertib -0.005 | [2] 0.005 | epoxomicin -0.052 | [4] 0.01 | [5] -0.043 | [6] 0.108 | [7] 0.052

MAN2B2 (UniProt Q9Y2E5)
active: [1] -0.445 | volasertib -0.704
inactive: [2] -0.005 | epoxomicin -0.002 | [5] -0.019 | [6] 0.013

MARCKS (UniProt P29966)
active: [4] 0.268
inactive: [1] 0.035 | volasertib -0.027 | [2] -0.091 | epoxomicin -0.044 | [5] -0.043 | [6] -0.014 | [7] 0.089

MARCKSL1 (UniProt P49006)
inactive: [1] -0.055 | volasertib 0.038 | [2] 0.021 | epoxomicin -0.055 | [4] -0.015 | [5] -0.044 | [6] -0.08 | [7] 0.147

MAD2L1 (UniProt Q13257)
inactive: [1] -0.058 | [2] 0.016 | epoxomicin -0.045 | [4] -0.038 | [5] 0.002 | [6] -0.081 | [7] -0.166
active: volasertib -0.381

MAP3K2 (UniProt Q9Y2U5)
inactive: [1] 0.041 | volasertib 0.015 | epoxomicin 0.01 | [3] -0.232 | [4] -0.017 | [5] -0.111 | rosiglitazone 0.074 | [6] 0.109 | [7] -0.126

LTBR (UniProt P36941)
inactive: [1] 0.076 | volasertib 0.105 | epoxomicin 0.028 | [3] -0.189 | [4] 0.002 | [5] -0.111 | rosiglitazone -0.151 | [6] 0.02 | [7] 0.176

LUC7L3 (UniProt O95232)
inactive: [1] -0.057 | volasertib -0.185 | [2] 0.027 | epoxomicin 0.005 | [4] 0 | [5] -0.031 | [6] -0.009 | [7] -0.074

MAP4K4 isoform 6 (UniProt O95819)
inactive: [1] -0.241 | [2] 0.109 | [5] -0.083 | [6] 0.261

MAP7D3 (UniProt Q8IWC1)
inactive: [1] 0.047 | [2] 0.003 | epoxomicin -0.288 | [3] -0.007 | [4] 0.03 | rosiglitazone -0.102 | [7] 0.06

MAGOHB (UniProt Q96A72)
inactive: [1] -0.046 | volasertib -0.096 | [2] 0.014 | epoxomicin 0.007 | [4] 0.003 | [5] 0.013 | [6] -0.039 | [7] 0.023

MAP2K1 (UniProt Q02750)
inactive: [1] -0.017 | volasertib -0.058 | [2] 0.024 | epoxomicin 0.053 | [4] -0.092 | [5] 0.032 | [6] -0.06 | [7] -0.113

MAIP1 (UniProt Q8WWC4)
inactive: [1] -0.086 | volasertib -0.098 | [2] -0.023 | epoxomicin -0.068 | [4] -0.015 | [5] 0.026 | [6] -0.052
active: [7] -0.396

MAD2L2 (UniProt Q9UI95)
inactive: [1] 0.102 | epoxomicin 0.14 | [3] -0.035 | [4] 0.117 | [6] -0.071 | [7] -0.072

MAP4K4 isoform 3 (UniProt O95819)
inactive: [1] -0.082 | [2] 0.011 | epoxomicin 0.047 | [4] -0.184 | [5] 0.012 | [6] 0.001
active: volasertib -0.316 | [7] -0.299

MAGEA8 (UniProt P43361)
inactive: [1] -0.096 | volasertib -0.386 | [2] -0.075 | [4] 0.252 | [5] -0.003 | [6] 0.038 | [7] -0.07

MAP3K3 isoform 2 (UniProt Q99759)
inactive: [1] -0.063 | [2] 0.02 | epoxomicin 0.043 | [3] 0.102 | [4] 0.164 | [5] -0.025 | [6] 0.05 | [7] -0.378

MAP2K2 (UniProt P36507)
inactive: [1] -0.12 | volasertib 0.084 | [2] 0.077 | epoxomicin 0.044 | [4] -0.06 | [5] 0.022 | [6] -0.056 | [7] -0.1

MAFF (UniProt Q9ULX9)
inactive: [1] 0.099 | [2] -0.007 | [4] 0.118 | [5] -0.171 | rosiglitazone 0.067 | [6] 0.014 | [7] 0.12

MAGEB10 (UniProt Q96LZ2)
inactive: [1] -0.074 | [2] 0.101 | [5] -0.08 | [6] 0.519

MAP3K20 (UniProt Q9NYL2)
inactive: [1] 0.038 | volasertib -0.026 | [2] 0.08 | epoxomicin 0.008 | [4] -0.016 | [5] -0.02 | [6] 0.126 | [7] -0.12

LSG1 (UniProt Q9H089)
inactive: [1] -0.102 | volasertib -0.085 | epoxomicin -0.207 | [3] -0.277 | [5] 0.044 | [6] 0.287

LYN (UniProt P07948)
inactive: [1] -0.016 | volasertib -0.023 | [2] 0.033 | epoxomicin 0.039 | [4] -0.095 | [5] -0.024 | [6] 0.144 | [7] -0.03

MAML1 (UniProt Q92585)
inactive: epoxomicin 0.059 | [5] -0.055
